Patent US4311700A, “Pyrimidobenzodiazepinones, their use and medicaments containing them” (priority 1979, dated 1982)
Some entries share one result that the patent states for a list of compounds.

Tested on: Shay rats
Experiment: Antiulcerogenic action (protective action on the stomach) in Shay rats, pylorus ligature plus acetylsalicylic acid
Assay type: in vivo, rat
Conditions: p.o.
Method: The effect of the compounds according to the invention on the formation, in rats, of gastric ulcers provoked by a pylorus ligature and 100 mg/kg of acetylsalicyclic acid, (administered orally) is shown in table II.
ED50 = the dose which reduces the ulcer index for the group treated
by 50% compared with the control group
The anti-ulcerogenic action is tested by a method using the so-caled Shay rats:
Ulcers are provoked in rats which have been starved for 24 hours (female rats, 180 to 200 g, 4 animals in a cage with a high grille) by means of a pylorus ligature (under anaesthesia with diethyl ether) and oral administration of 100 mg/10 ml/kg of acetylsalicyclic acid. The substances to be tested are administered orally (10 ml/kg) 1 hour before the pylorus ligature. The closure of the wound is effected by means of Michel's clips. The animals are killed 4 hours afterwards under ether anaesthesia by dislocating the atlas, and the stomach is cut out. The stomach is opened longitudinally and is fixed on a cork slab, the quantity of gastric juice secreted (volume) and the hydrochloric acid content having been determined beforehand; the number and size (= diameter) of ulcers present are determined by means of a stereomicroscope at a 10-fold magnification. The product of the degree of severity (in accordance with the following rating scale) and the number of the ulcers is used as an individual ulcer index.
ulcer diameter 0.1-1.4 mm
The reduction in the average ulcer index in each group treated compared with that of the control group (=100%) is used as a measure of the anti-ulcerogenic effect. The ED50 indicates the dose which reduces the average ulcer index by 50%.

Compound | dose/action curve (dose dependence of the action)
CN1CCN(CC(=O)N2c3ccccc3NC(=O)c3cncnc32)CC1 [Compound 2, 11-[(4-Methyl-1-piperazinyl)acetyl]-5,6-dihydropyrimido[4,5-b][1,5]benzodiazepin-5-one] | depends strictly on the dose
CN1CCN(CC(=O)N2c3ccccc3N(C)C(=O)c3cnc(-c4ccccc4)nc32)CC1 [Compound 3, 6-Methyl-11-[(4-methyl-1-piperazinyl)acetyl]-2-phenyl-5,6-dihydropyrimido[4,5-b][1,5]benzodiazepin-5-one] | depends strictly on the dose
CN1C(=O)c2cnc(-c3ccccc3)nc2N(C(=O)CN2CCCCC2)c2ccccc21 [Compound 4, 6-Methyl-2-phenyl-11-piperidinoacetyl-5,6-dihydropyrimido[4,5-b][1,5]benzodiazepin-5-one] | depends strictly on the dose
CN(C)CCN(C)CC(=O)N1c2ccccc2N(C)C(=O)c2cnc(-c3ccccc3)nc21 [Compound 5, 11-[N-(2-dimethylaminoethyl)-N-methylamino]acetyl-6-methyl-2-phenyl-5,6-dihydropyrimido[4,5-b][1,5]benzodiazepin-5-one] | depends strictly on the dose
